# In PubChem BioAssay AID493014 (National Center for Advancing Translational Sciences (NCATS), 2011):
# Where “and” joins values, the source holds several entries; their conditions need not be identical. Equal entries are not always repeated. The list shows a part of the results. Shown are side measurements of this screen, not its main read-out; they come without a call. The list favours compounds with an active or inconclusive main result. Potencies come from curve fits of mixed quality, noted in brackets.
# Assay: qHTS Assay to Find Inhibitors of Chronic Active B-Cell Receptor Signaling
# Conditions: ABC-DLBCL IkBa-CBG/CBR reporter, luminescence ratio (green luciferase fused to IkBa over red control in TMD8 lymphoma cells), 4 h; measured here: CBR red luminescence, cell number
# Procedure, shortened: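 Cell line TMD8 (human ABC DLBCL), stably expressing tet-inducible CBG68-IkBa fusion and CBR; IMDM/0.5% FBS; cpd up to 46 uM; dox induction, 4 h, 37C/5% CO2; dual luminescence; green/red ratio; MG132 control.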
row,SMILES,AC50
1,Cc1ccc(NC(=O)c2nnn(-c3cc(C)cc(C)c3)c2N)cc1,"10 µM [falling, partial curve, poor fit]"
2,O=C(CCC(=O)OCc1ccc(Cl)cc1)Nc1cccc([N+](=O)[O-])c1,"0.282 µM [rising, full curve, poor fit]"
3,Cn1c(N)c(C(=O)COC(=O)c2ccc([N+](=O)[O-])o2)c(=O)n(C)c1=O,"35.5 µM [falling, single point]"
4,c1ccc(-n2nnc3cnccc32)cc1,"11.2 µM [falling, partial curve, poor fit]"
5,CCCCN(C)CCNC(=O)c1cc(-c2cccnc2)nc2ccc(S(=O)(=O)N3CCC(C)CC3)cc12,"2.82 µM [rising, full curve, poor fit] and 112 nM [rising, full curve, poor fit]"
6,CCOc1ccccc1NC(=O)CN1CCC(NC(=O)c2ccccc2)CC1,"5.62 µM [rising, full curve]"
7,CN(C(=O)COc1ccccc1)c1nnc(-c2ccncc2)s1,"7.31 µM [falling, partial curve]"
8,Nc1ccccc1Nc1cc(-c2cccc(Cl)c2)nn1-c1ccccc1,"29.1 µM [falling, single point]"
9,COc1ccc(-c2csc(NC(=O)c3ccccc3F)c2C(=O)O)cc1,"6.31 µM [falling, partial curve, poor fit]"
10,C=CCC[C@@H](Cc1ccc(F)cc1)C(=O)OC[C@H](C)NC(=O)[C@H](CC=C)CC(=O)N(CCO)Cc1ccccc1,"36.6 µM [falling, partial curve, poor fit]"
11,CCOc1ccc(C(=S)NC2CCCCC2)cc1OC,"12.6 µM [rising, partial curve]"
12,Cc1ccc(C2(C)NC(=O)N(CC(=O)Nc3ccc(Cl)c(S(=O)(=O)N4CCCCC4)c3)C2=O)cc1 (stereo not given),"14.6 µM [falling, single point]"
13,C#C[C@]1(O)CC[C@H]2[C@@H]3CCc4cc(OC)ccc4[C@H]3CC[C@@]21C,"6.51 µM [rising, single point]"
14,CN(N=Nc1ccc([N+](=O)[O-])cc1)c1ccccc1,"6.51 µM [rising, partial curve]"
15,O=C(Nc1sc2c(c1C(=O)O)CCC2)c1ccccc1Cl,"6.31 µM [falling, partial curve]"
16,O=C(Nc1nc2ccc(F)cc2s1)C1CCN(S(=O)(=O)c2cc([N+](=O)[O-])ccc2Cl)CC1,"7.31 µM [falling, partial curve]"
17,CCn1c(SCc2ccc(C(=O)Nc3cc(C)cc(C)c3)cc2)nnc1-c1ccncc1,"20.6 µM [falling, single point]"
18,c1ccc(-n2cnc3cc(NCc4ccco4)ccc32)cc1,"25.1 µM [falling, single point]"
19,CN(CCc1ccccc1)C(=O)CCc1nnc(Cc2ccc3c(c2)OCO3)o1,"15.8 µM [rising, partial curve, poor fit]"
20,CSCCC(NC(=O)COc1ccccc1)C(=O)OCCOc1ccc(C)cc1 (stereo not given),"2.06 µM [rising, full curve]"
21,C[n+]1cccc(C2C(C#N)=C(N)Oc3c2ccc2ccccc32)c1 (stereo not given),"7.94 µM [falling, partial curve, poor fit]"
22,CC(C)CN(C(=O)CSc1nc2ccccc2o1)c1c(N)n(Cc2ccccc2)c(=O)[nH]c1=O,"23.1 µM [falling, partial curve, poor fit]"
23,Cc1ccc(C(NC(=O)N2CCCC2)C(Cl)Cl)cc1F (stereo not given),"11.2 µM [falling, partial curve]"

# In the list so far, these have an aryl thioether with sulfur outside any ring.
row,SMILES,AC50
17,CCn1c(SCc2ccc(C(=O)Nc3cc(C)cc(C)c3)cc2)nnc1-c1ccncc1,"20.6 µM [falling, single point]"
22,CC(C)CN(C(=O)CSc1nc2ccccc2o1)c1c(N)n(Cc2ccccc2)c(=O)[nH]c1=O,"23.1 µM [falling, partial curve, poor fit]"

# (more compounds)

row,SMILES,AC50
1,CCCCCc1ccc(OCCC[n+]2ccccc2)c(CCCCC)c1,"7.08 µM [falling, partial curve, poor fit]"
2,O=C(O)/C=C/c1cccc(OCc2ccccc2)c1,"8.91 µM [falling, partial curve]"
3,COc1ccc(C(C)=O)cc1CSc1nc2ccccc2c(=O)n1-c1cccc(C)c1,"0.326 µM [rising, full curve, poor fit]"
4,CC1=C(CC(=O)c2ccc(Cl)cc2)C(=O)c2ccccc2C1=O,"11.2 µM [falling, single point]"
5,Cc1nc2c(-c3ccc(F)cc3)cnn2c(N)c1-c1ccccc1,"35.5 µM [falling, single point]"
6,Cc1ccc(F)c(NC(=O)c2ccc(Cn3cc(Cl)cn3)cc2)c1,"35.5 µM [falling, single point]"
7,CCN(CC)c1ccc(/C=N/NC(=O)c2ccoc2C)cc1,"11.2 µM [falling, partial curve]"
8,Cc1ccc(C2C(C#N)=C(N)Oc3c2sc2ccccc32)o1 (stereo not given),"7.08 µM [falling, partial curve, poor fit]"
9,Cc1ccc(CNC(=O)c2cc(COc3c(F)cccc3F)on2)s1,"35.5 µM [falling, partial curve, poor fit]"
10,COc1cc(C(=O)N(Cc2cc3ccccc3[nH]c2=O)CC2CCCO2)cc(OC)c1OC (stereo not given),"2.82 µM [rising, partial curve, poor fit]"
11,N#Cc1cc(-c2ccccc2)oc1NC(=O)c1ccco1,"32.6 µM [falling, single point]"
12,CN(CC(=O)Nc1ccccc1Cl)C(=O)COC(=O)c1ccc([N+](=O)[O-])cc1Cl,"29.1 µM [rising, single point]"
13,C=CCNc1nc(N)c([N+](=O)[O-])c(NCc2ccccc2)n1,"22.4 µM [rising, partial curve, poor fit]"
14,CCCCN1C(=S)NC[C@@H]1Cc1cccc2ccccc12,"5.62 µM [rising, single point]"
15,CN1/C(=C\C=N\NC(=O)c2ccc(O)cc2)C(C)(C)c2ccccc21,"14.6 µM [falling, partial curve]"
16,Nc1ccc(C(=O)CC(=O)Nc2ccc(Cl)cc2)cc1,"28.2 µM [falling, single point]"
17,Cc1ccc(NC(=O)[C@@H]2CCCN2S(=O)(=O)c2ccccc2C(F)(F)F)cc1S(=O)(=O)N1CCOCC1,"16.4 µM [falling, single point]"
18,N#C/C(N=Nc1ccccc1O)=N\Nc1ccccc1O,"5.17 µM [falling, full curve, poor fit]"
19,Cc1ccc(Cl)cc1NC(=O)C1CCN(S(C)(=O)=O)CC1,"2.82 µM [rising, full curve, poor fit]"
20,COc1cccc(CNC(=O)c2cc3c(C)nc4ccccc4c3o2)c1,"25.9 µM [falling, single point]"
21,COc1ccc(Cn2c(C)nc([N+](=O)[O-])c2SCC(=O)O)cc1[N+](=O)[O-],"3.16 µM [rising, partial curve, poor fit]"
22,CCOc1ccccc1-c1nc(C(N)=O)c2[nH]c(=O)n(-c3cccc(C)c3)c2n1,"12.6 µM [falling, single point]"
